± gives the standard deviation of the averaged measurements. Some of the results follow.
Compound: Nc1nc2c(ncn2[C@@H]2O[C@H](COP(=O)(O)OP(=O)(O)OP(=O)(O)O)[C@@H](O)[C@H]2O)c(=O)[nH]1 [guanosine triphosphate]
Experiment: NP40-soluble protein abundance relative to vehicle (solubility fold change) (ratio); higher = more soluble protein in presence of GTP
Method: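 Solubility proteome profiling in Jurkat crude lysate. Lysate was treated with Mg-GTP (0.1-10 mM) for 10 min at room temperature and 3 min at 37 °C, then solubilised with 0.8% NP40 and benzonase, followed by ultracentrifugation. Proteins were quantified by TMT10 LC-MS/MS; the value is the NP40-soluble abundance relative to the NP40-processed vehicle, from 3 independent experiments.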

Amino acid sequences for entries named in this document (tags omitted). A change or cut given only in a name is not applied to a line headed by its entry.
UniProt P09622, whole entry: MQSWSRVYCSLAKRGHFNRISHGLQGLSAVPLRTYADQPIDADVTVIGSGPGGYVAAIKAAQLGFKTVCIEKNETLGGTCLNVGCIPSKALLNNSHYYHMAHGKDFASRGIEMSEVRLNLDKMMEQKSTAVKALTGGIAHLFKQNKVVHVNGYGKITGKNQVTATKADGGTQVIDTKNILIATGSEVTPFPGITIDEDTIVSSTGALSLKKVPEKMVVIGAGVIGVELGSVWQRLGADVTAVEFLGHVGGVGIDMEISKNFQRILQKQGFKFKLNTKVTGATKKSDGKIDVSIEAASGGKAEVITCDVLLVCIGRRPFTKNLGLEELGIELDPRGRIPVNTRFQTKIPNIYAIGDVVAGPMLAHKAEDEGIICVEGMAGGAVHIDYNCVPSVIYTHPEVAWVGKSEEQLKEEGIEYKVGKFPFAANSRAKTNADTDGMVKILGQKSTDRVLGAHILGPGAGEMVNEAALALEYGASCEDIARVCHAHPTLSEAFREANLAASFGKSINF
UniProt P12081: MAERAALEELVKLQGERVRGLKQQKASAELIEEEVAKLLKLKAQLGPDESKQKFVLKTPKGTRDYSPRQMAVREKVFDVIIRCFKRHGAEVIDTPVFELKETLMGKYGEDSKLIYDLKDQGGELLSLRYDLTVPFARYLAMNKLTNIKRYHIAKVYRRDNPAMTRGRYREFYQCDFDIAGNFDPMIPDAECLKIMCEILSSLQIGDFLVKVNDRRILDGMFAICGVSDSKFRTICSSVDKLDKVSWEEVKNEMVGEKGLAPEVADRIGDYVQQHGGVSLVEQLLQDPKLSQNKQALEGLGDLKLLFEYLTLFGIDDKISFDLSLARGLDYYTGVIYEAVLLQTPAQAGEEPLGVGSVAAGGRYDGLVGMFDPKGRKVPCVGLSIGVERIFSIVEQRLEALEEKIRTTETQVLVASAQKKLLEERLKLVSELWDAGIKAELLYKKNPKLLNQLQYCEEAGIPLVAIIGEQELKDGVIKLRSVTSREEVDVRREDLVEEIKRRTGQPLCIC
UniProt P14854, whole entry: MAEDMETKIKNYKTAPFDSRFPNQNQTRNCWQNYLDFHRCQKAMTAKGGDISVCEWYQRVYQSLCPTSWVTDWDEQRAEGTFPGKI
UniProt P21580: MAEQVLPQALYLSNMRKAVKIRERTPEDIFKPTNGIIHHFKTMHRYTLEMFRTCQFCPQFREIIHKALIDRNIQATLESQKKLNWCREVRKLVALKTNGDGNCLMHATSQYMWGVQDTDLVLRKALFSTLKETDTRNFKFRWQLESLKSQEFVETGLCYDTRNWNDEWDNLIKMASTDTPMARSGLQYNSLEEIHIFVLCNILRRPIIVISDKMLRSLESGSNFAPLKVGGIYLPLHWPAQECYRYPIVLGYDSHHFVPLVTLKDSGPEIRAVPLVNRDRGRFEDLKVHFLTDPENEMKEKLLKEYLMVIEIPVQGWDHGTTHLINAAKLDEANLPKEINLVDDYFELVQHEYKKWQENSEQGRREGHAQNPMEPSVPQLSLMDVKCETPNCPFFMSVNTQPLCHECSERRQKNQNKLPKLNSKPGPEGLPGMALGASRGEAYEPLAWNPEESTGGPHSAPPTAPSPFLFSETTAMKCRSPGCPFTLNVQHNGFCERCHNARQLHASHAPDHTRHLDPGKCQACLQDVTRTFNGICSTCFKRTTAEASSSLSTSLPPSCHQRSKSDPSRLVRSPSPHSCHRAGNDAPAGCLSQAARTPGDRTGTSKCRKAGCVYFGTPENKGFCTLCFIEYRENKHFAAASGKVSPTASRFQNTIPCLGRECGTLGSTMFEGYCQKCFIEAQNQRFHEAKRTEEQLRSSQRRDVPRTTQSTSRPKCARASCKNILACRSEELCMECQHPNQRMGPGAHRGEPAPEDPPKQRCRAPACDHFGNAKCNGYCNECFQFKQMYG
UniProt P12235: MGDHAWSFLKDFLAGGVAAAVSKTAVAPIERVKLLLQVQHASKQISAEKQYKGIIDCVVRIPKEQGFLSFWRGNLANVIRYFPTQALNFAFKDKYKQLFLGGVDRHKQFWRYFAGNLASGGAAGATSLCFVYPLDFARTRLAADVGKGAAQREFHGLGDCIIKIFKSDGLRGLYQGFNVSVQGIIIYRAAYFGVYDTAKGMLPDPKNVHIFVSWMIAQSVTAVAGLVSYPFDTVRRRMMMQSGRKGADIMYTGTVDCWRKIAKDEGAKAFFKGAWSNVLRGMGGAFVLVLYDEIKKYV

Target | NP40-soluble protein abundance (concentration: 0.1mM) | NP40-soluble protein abundance (concentration: 0.5mM) | NP40-soluble protein abundance (concentration: 1mM) | NP40-soluble protein abundance (concentration: 2mM) | NP40-soluble protein abundance (concentration: 4mM) | NP40-soluble protein abundance (concentration: 6mM) | NP40-soluble protein abundance (concentration: 8mM) | NP40-soluble protein abundance (concentration: 10mM)
DLD (UniProt P09622) | 0.961 ± 0.017 | 1.01 ± 0.052 | 0.952 ± 0.059 | 0.966 ± 0.08 | 0.965 ± 0.079 | 0.994 ± 0.094 | 0.947 ± 0.071 | 0.924 ± 0.064
HARS (UniProt P12081) | 0.957 ± 0.036 | 0.9686 ± 0.0042 | 0.907 ± 0.021 | 0.888 ± 0.019 | 0.871 ± 0.029 | 0.883 ± 0.022 | 0.8654 ± 0.0017 | 0.853 ± 0.036
COX6B1 (UniProt P14854) | 1.03 ± 0.11 | 0.994 ± 0.059 | 1.01 ± 0.097 | 1.06 ± 0.11 | 1.03 ± 0.15 | 1.02 ± 0.091 | 1.03 ± 0.045 | 1.17 ± 0.087
TNFAIP3 (UniProt P21580) | 1.112 ± 0.011 | 1.06 ± 0.038 | 1.05 ± 0.047 | 1.06 ± 0.038 | 1.12 ± 0.041 | 1.02 ± 0.025 | 1.02 ± 0.071 | 1.03 ± 0.047
SLC25A4 (UniProt P12235) | 0.893 ± 0.13 | 0.972 ± 0.2 | 0.888 ± 0.11 | 0.987 ± 0.14 | 0.978 ± 0.19 | 0.97 ± 0.19 | 0.898 ± 0.15 | 0.96 ± 0.12
